# Results published in PubChem BioAssay AID504788 (Broad Institute, 2011).
# Inconclusive results, whose numbers are uncertain, are shown with a selection of clear calls. Activity calls are given as the source filed them.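 Rule for the calls: active = compound lowers the viability signal with a fitted half-maximal concentration within ten times the top dose, every run; inconclusive = runs disagree, poor fit, or flat partial inhibition; inactive = the rest.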
# Assay: HMLE_shECad viability reduction – cell-based, CellTiter-Glo luminescence, dry powder, set 7, dose response (AID 504788)
# Details: 72 h; at 19.5 µM (top of the series) unless noted
# Summary of the method: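 System: HMLE_shECad cells, E-cadherin knockdown, EMT-induced breast cancer stem cell model / Input: 2000 cells/well / Buffer or medium: serum-free CSC screening medium, 37 °C, 5% CO2 / Doses: 100 nL compound pinned into each well / Incubation: ≥4 h settling, then 70–74 h compound exposure, 37 °C / Technique: CellTiter-Glo luminescence, reagent diluted 1:3 in PBS, 12 min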
row,Structure (SMILES),"activity change, negative = inhibition"
1,Cc1cccc(/C=C/C(=O)NC2=NCCS2)c1,inactive: 6.76%
2,N#Cc1ccccc1/C=C/C(=O)NC1=NCCS1,inactive: -13.1%
3,O=C(COc1ccc(Cl)cc1Cl)N/N=C/c1ccccn1,inconclusive: -9.81%
4,O=C(COc1ccc(Cl)cc1Cl)NC1=NCCS1,inactive: -3.83%
5,CC[C@@H](C(=O)O)C1CC[C@H](C)C([C@@H](C)[C@H](O)[C@H](C)C(=O)[C@H](CC)C2O[C@]3(C=C[C@@H](O)[C@]4(CC[C@@](C)(C5CC[C@](O)(CC)[C@H](C)O5)O4)O3)[C@H](C)C[C@@H]2C)O1 (some centres not stated),inconclusive: -86% [at 30 µM]
6,Cc1csc(NC(=O)c2ccc(CNc3ncccc3F)o2)n1,inconclusive: -21.5%
7,O=C(COc1ccc(Cl)cc1Cl)N/N=C\c1ccccn1,inconclusive: -12.3%
